These results are taken from US20040009177A1 (SERVICES, published 2004).

Chains of the proteins cited; added tags and fusions are not shown. Residues count along the entry.
UniProt P49238: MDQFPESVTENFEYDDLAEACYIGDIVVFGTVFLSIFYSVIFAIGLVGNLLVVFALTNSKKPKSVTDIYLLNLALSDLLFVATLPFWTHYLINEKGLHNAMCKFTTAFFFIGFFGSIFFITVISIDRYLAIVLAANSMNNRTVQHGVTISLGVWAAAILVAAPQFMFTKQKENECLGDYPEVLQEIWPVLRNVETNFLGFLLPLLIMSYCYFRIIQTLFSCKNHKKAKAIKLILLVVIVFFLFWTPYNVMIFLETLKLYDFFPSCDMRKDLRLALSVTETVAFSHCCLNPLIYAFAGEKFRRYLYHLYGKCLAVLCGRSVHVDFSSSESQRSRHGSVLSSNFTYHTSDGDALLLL
UniProt P03423: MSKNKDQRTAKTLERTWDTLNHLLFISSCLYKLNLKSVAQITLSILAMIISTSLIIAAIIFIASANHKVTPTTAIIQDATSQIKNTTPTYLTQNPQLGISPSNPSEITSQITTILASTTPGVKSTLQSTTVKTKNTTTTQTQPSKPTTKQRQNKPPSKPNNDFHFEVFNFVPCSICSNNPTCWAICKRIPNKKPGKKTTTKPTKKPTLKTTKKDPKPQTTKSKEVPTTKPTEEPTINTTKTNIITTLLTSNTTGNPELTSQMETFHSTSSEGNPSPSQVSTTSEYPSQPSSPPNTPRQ
UniProt P78423, residues 25-100: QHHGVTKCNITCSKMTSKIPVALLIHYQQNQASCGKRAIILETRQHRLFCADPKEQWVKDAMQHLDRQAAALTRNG

These are yes or no findings as the source states them, for the method shown. Some binding calls cover weakened binding; strength is not graded here.

In assay [1] the target is CX3CR1 on CX3CR1-transfected human embryonic kidney cells (293-CX3CR1 cells) (UniProt P49238). The experiment in a line: binding and binding inhibition assays with 293-CX3CR1 cells.
The target is the same in assay [2]. The experiment in a line: flow cytometry with G-depleted void volume of a 130-2G affinity column as control. On the technique in general: In flow cytometry, cells or beads pass a laser one at a time.
For assay [3] the target is unchanged. The experiment in a line: flow cytometry on 293-CX3CR1 cells.
For assay [4] the target is unchanged. The assay is described as follows: flow cytometry on 293-CX3CR1 cells, 4°C.

Take “RSV G glycoprotein, purified from RSV/A2-infected Vero cells (from UniProt P03423 1-298) (ligand)”: the binding entry in assay [1] and in assay [2] was “binds” throughout.
Take “human fractalkine (R&D Diagnostics) (from UniProt P78423 25-100) (ligand)”: the binding entry in assay [3] and in assay [4] was “binds” throughout.
